Test results reported in US20110136791A1, “COMBINATION OF A NICOTINIC RECEPTOR PARTIAL AGONIST AND OF AN ACETYLCHOLINESTERASE INHIBITOR, PHARMACEUTICAL COMPOSITION CONTAINING SAME AND USE THEREOF IN THE TREATMENT OF COGNITIVE DISORDERS” (priority 2008, published 2011).

Test system: rats with no deficit
Experiment: Test for spontaneous forgetting in rats with no deficit (object recognition test, visual episodic memory)
Type: in vivo
Conditions: rat, p.o. 60 min before session; group 2: 0.1 mg/kg; group 3: rivastigmine 0.03 mg/kg; group 4: 0.01 mg/kg + rivastigmine 0.03 mg/kg (base equivalent); 2 min session
Procedure: 1. Test for Spontaneous Forgetting in Rats with No Deficit
1.) Accustomization phase: In this protocol, the animals are first subjected to a session of accustomization to the environmental context (a wooden chamber of 65×45×45 cm) for a period of 2 minutes. The time spent in active locomotion is measured using a timer. 2.) Learning phase: 24 hours later, two exactly identical objects (either metal triangles or pyramids made of Lego) are placed in the experimental device. Each rat is placed in the middle of the chamber, the nose against the wall opposite that where the objects/stimulus are located. The pairs of objects presented are alternated equitably in each of the groups of rats. The animals are left in the experimental chamber until they reach a period of exploration of the two objects equal to 20 seconds, out of a maximum period of 3 minutes. As soon as the 20 seconds of exploration are reached, the rat is put back in its housing cage. […] 3.) Recalling session: The recalling session takes place after a forgetting period of 24 h for all the groups. […]
This test lasts 3 minutes, during which the time spent exploring each of the 2 objects is measured. […]
For the learning and recalling sessions, the exploring of an object is counted if the animal orients its nose toward the object, inside a perimeter of 2 centimeters around said object, or if it touches it with its nose or with its feet. […]

SMILES	Locomotion (time spent in locomotion during the first accustomization session)
O=C(O)/C=C/C(=O)O.O=C(Oc1ccc(Br)cc1)N1CCN2CCC1CC2 [4-bromophenyl 1,4-diazabicyclo[3.2.2]nonane-4-carboxylate (2E)-but-2-enedioate]	21.15 ± 1.14 s
CCN(C)C(=O)Oc1cccc([C@H](C)N(C)C)c1 [rivastigmine]	24.94 ± 2.38 s
